# Experimental data as given in PubChem BioAssay AID248 (DTP/NCI, 2004).
# The list is a part of this screen's results and no random one: it gathers tests that were run many times, whatever their T/C, doses with no T/C, and many T/C values between a quarter and a half above the control. Further doses and runs are listed elsewhere. T/C gives the treated animals as a percentage of the vehicle group. Some entries give survivors of the animals treated and no T/C: the source files T/C as zero there, which appears to mark a toxic dose or a test without result, not a measured value. Survivors were counted at the toxicity check, usually on the fifth day, unless a day is given; later deaths do not show. Schedules are NCI's codes, read here as Q, the interval in days (D) or hours (H), X, the number of doses. Where survival is the endpoint, the PubChem record calls one and a half times the control and up active, and a quarter to a half above the control has no call in these data; cut-offs in other NCI protocols can differ. Some T/C values are followed by the survivors on the day toxicity was checked, most often the fifth; without a count, all were alive then. Some doses were run more than once; their values stand side by side, smallest first. Brackets with × say how often a value occurs here. Some schedule codes hold Z or #, which are not explained here.
# Tested on: L1210 leukemia ip in BDF1 mice, survival T/C
# Assay: NCI In Vivo Anticancer Drug Screen. Data for tumor model L1210 Leukemia (intraperitoneal) in B6D2F1 (BDF1) mice
# Conditions: higher T/C = longer survival
smiles,measurement,setting,value
OCC1OC(n2cnc3c(=S)nc[nH]c32)C(O)C1O (stereo not given),T/C,"T/C endpoint: mean survival time, dose: 20.0 mg/kg/injection, schedule: Q01DX009 (ip), vehicle: saline",125 and 133 % of control
same,T/C,"T/C endpoint: mean survival time, dose: 20.0 mg/kg/injection, schedule: Q01DX010 (ip), vehicle: saline",133 % of control
same,T/C,"T/C endpoint: mean survival time, dose: 37.5 mg/kg/injection, schedule: Q01DX009 (ip), vehicle: water",147 % of control
same,T/C,"T/C endpoint: mean survival time, dose: 40.0 mg/kg/injection, schedule: Q01DX009 (ip), vehicle: saline","125, 128, 138, 140 % of control"
same,T/C,"T/C endpoint: mean survival time, dose: 40.0 mg/kg/injection, schedule: Q01DX010 (ip), vehicle: saline",125 and 141 % of control
same,T/C,"T/C endpoint: mean survival time, dose: 50.0 mg/kg/injection, schedule: Q01DX015 (ip), vehicle: carboxymethylcellulose (CMC)",149 % of control
same,T/C,"T/C endpoint: mean survival time, dose: 56.0 mg/kg/injection, schedule: Q03HX024 (ip), vehicle: clinical formulation",142 % of control
same,T/C,"T/C endpoint: mean survival time, dose: 56.0 mg/kg/injection, schedule: Q03HX024 (ip), vehicle: saline",140 % of control
same,T/C,"T/C endpoint: mean survival time, dose: 71.5 mg/kg/injection, schedule: Q01DX Z (ip), vehicle: carboxymethylcellulose (CMC)",132 % of control
same,T/C,"T/C endpoint: mean survival time, dose: 73.0 mg/kg/injection, schedule: Q01DX Z (ip), vehicle: carboxymethylcellulose (CMC)",137 % of control
same,T/C,"T/C endpoint: mean survival time, dose: 75.0 mg/kg/injection, schedule: Q01DX009 (ip), vehicle: water, evaluated on day 5",137 % of control
same,T/C,"T/C endpoint: mean survival time, dose: 75.0 mg/kg/injection, schedule: Q01DX009 (ip), vehicle: water, evaluated on day 6",139 % of control
same,T/C,"T/C endpoint: mean survival time, dose: 75.0 mg/kg/injection, schedule: Q01DX009 (ip), vehicle: water, evaluated on day 30",137 and 139 % of control
same,T/C,"T/C endpoint: mean survival time, dose: 75.0 mg/kg/injection, schedule: Q03HX024 (ip), vehicle: saline",139 and 144 % of control
same,T/C,"T/C endpoint: mean survival time, dose: 80.0 mg/kg/injection, schedule: Q01DX009 (ip), vehicle: saline","138, 140, 142, 150 % of control"
same,T/C,"T/C endpoint: mean survival time, dose: 80.0 mg/kg/injection, schedule: Q01DX010 (ip), vehicle: saline",141 and 144 % of control
same,T/C,"T/C endpoint: mean survival time, dose: 83.0 mg/kg/injection, schedule: Q03HX024 (ip), vehicle: clinical formulation",142 % of control
same,T/C,"T/C endpoint: mean survival time, dose: 83.0 mg/kg/injection, schedule: Q03HX024 (ip), vehicle: saline",134 % of control
same,T/C,"T/C endpoint: mean survival time, dose: 100.0 mg/kg/injection, schedule: Q01DX005 (ip), vehicle: saline","125, 127, 132, 134 % of control"
same,T/C,"T/C endpoint: mean survival time, dose: 100.0 mg/kg/injection, schedule: Q01DX009 (ip), vehicle: saline","104, 111 [5 of 6 alive], 112, 115 [5 of 6 alive], 117, 118, 120, 122 [5 of 6 alive], 144, 148 % of control"
same,T/C,"T/C endpoint: mean survival time, dose: 100.0 mg/kg/injection, schedule: Q01DX015 (ip), vehicle: carboxymethylcellulose (CMC)",144 % of control
same,T/C,"T/C endpoint: mean survival time, dose: 125.0 mg/kg/injection, schedule: Q01DX015 (ip), vehicle: carboxymethylcellulose (CMC)",141 % of control [8 of 10 alive]
same,T/C,"T/C endpoint: mean survival time, dose: 125.0 mg/kg/injection, schedule: Q03HX024 (ip), vehicle: clinical formulation",147 % of control
same,T/C,"T/C endpoint: mean survival time, dose: 143.0 mg/kg/injection, schedule: Q01DX Z (ip), vehicle: carboxymethylcellulose (CMC)",141 % of control (2×)
same,T/C,"T/C endpoint: mean survival time, dose: 146.0 mg/kg/injection, schedule: Q01DX Z (ip), vehicle: carboxymethylcellulose (CMC)",145 % of control
same,T/C,"T/C endpoint: mean survival time, dose: 150.0 mg/kg/injection, schedule: Q01DX009 (ip), vehicle: water, evaluated on day 5",147 % of control
same,T/C,"T/C endpoint: mean survival time, dose: 150.0 mg/kg/injection, schedule: Q01DX009 (ip), vehicle: water, evaluated on day 6",139 % of control
same,T/C,"T/C endpoint: mean survival time, dose: 150.0 mg/kg/injection, schedule: Q01DX009 (ip), vehicle: water, evaluated on day 30",139 and 147 % of control
same,T/C,"T/C endpoint: mean survival time, dose: 150.0 mg/kg/injection, schedule: Q01DX015 (ip), vehicle: carboxymethylcellulose (CMC)",147 % of control
same,T/C,"T/C endpoint: mean survival time, dose: 150.0 mg/kg/injection, schedule: Q01DX Z (ip), vehicle: carboxymethylcellulose (CMC)",134 % of control
same,T/C,"T/C endpoint: mean survival time, dose: 150.0 mg/kg/injection, schedule: Q03HX024 (ip), vehicle: saline",135 and 142 % of control [9 of 10 alive]
same,T/C,"T/C endpoint: mean survival time, dose: 160.0 mg/kg/injection, schedule: Q01DX009 (ip), vehicle: saline","154, 156, 160, 164 % of control"
same,T/C,"T/C endpoint: mean survival time, dose: 178.75 mg/kg/injection, schedule: Q01DX Z (ip), vehicle: carboxymethylcellulose (CMC)",142 % of control
same,T/C,"T/C endpoint: mean survival time, dose: 200.0 mg/kg/injection, schedule: Q01DX005 (ip), vehicle: saline","110, 114, 116, 118, 119, 121, 123 (2×), 125, 126, 127, 141, 149 % of control"
same,T/C,"T/C endpoint: mean survival time, dose: 200.0 mg/kg/injection, schedule: Q01DX009 (ip), vehicle: carboxymethylcellulose (CMC)",140 % of control
same,T/C,"T/C endpoint: mean survival time, dose: 200.0 mg/kg/injection, schedule: Q01DX009 (ip), vehicle: saline","114, 121, 123, 128, 130 (2×), 136, 140 % of control"
same,T/C,"T/C endpoint: mean survival time, dose: 214.5 mg/kg/injection, schedule: Q01DX Z (ip), vehicle: carboxymethylcellulose (CMC)",142 % of control
same,T/C,"T/C endpoint: mean survival time, dose: 300.0 mg/kg/injection, schedule: Q01DX009 (ip), vehicle: water, evaluated on day 5",149 % of control
same,T/C,"T/C endpoint: mean survival time, dose: 300.0 mg/kg/injection, schedule: Q01DX009 (ip), vehicle: water, evaluated on day 6",141 % of control
same,T/C,"T/C endpoint: mean survival time, dose: 300.0 mg/kg/injection, schedule: Q01DX009 (ip), vehicle: water, evaluated on day 30",141 and 150 % of control
same,T/C,"T/C endpoint: mean survival time, dose: 300.0 mg/kg/injection, schedule: Q01DX Z (ip), vehicle: carboxymethylcellulose (CMC)",147 % of control
same,T/C,"T/C endpoint: mean survival time, dose: 300.0 mg/kg/injection, schedule: Q## X Z (ip), vehicle: carboxymethylcellulose (CMC)",141 % of control [5 of 6 alive]
same,T/C,"T/C endpoint: mean survival time, dose: 321.75 mg/kg/injection, schedule: Q01DX Z (ip), vehicle: carboxymethylcellulose (CMC)",125 % of control
same,T/C,"T/C endpoint: mean survival time, dose: 400.0 mg/kg/injection, schedule: Q01DX001 (ip), vehicle: alkali diluted with saline",143 % of control
same,T/C,"T/C endpoint: mean survival time, dose: 400.0 mg/kg/injection, schedule: Q01DX001 (ip), vehicle: carboxymethylcellulose (CMC)",130 % of control
same,T/C,"T/C endpoint: mean survival time, dose: 400.0 mg/kg/injection, schedule: Q01DX005 (ip), vehicle: saline","112, 121, 125, 128, 131, 132, 135, 142 % of control"
same,T/C,"T/C endpoint: mean survival time, dose: 400.0 mg/kg/injection, schedule: Q01DX009 (ip), vehicle: carboxymethylcellulose (CMC)",132 % of control
same,T/C,"T/C endpoint: mean survival time, dose: 400.0 mg/kg/injection, schedule: Q01DX009 (ip), vehicle: saline","130, 137, 138, 144 (2×), 147, 149 [4 of 6 alive], 151, 168 % of control"
same,T/C,"T/C endpoint: mean survival time, dose: 440.0 mg/kg/injection, schedule: Q01DX001 (ip), vehicle: carboxymethylcellulose (CMC)",127 % of control
same,T/C,"T/C endpoint: mean survival time, dose: 600.0 mg/kg/injection, schedule: Q01DX001 (ip), vehicle: carboxymethylcellulose (CMC)",130 % of control
same,T/C,"T/C endpoint: mean survival time, dose: 670.0 mg/kg/injection, schedule: Q01DX001 (ip), vehicle: carboxymethylcellulose (CMC)",143 % of control
same,T/C,"T/C endpoint: mean survival time, dose: 800.0 mg/kg/injection, schedule: Q01DX001 (ip), vehicle: saline",129 % of control
same,T/C,"T/C endpoint: mean survival time, dose: 800.0 mg/kg/injection, schedule: Q01DX005 (ip), vehicle: saline","121, 127 (2×), 128, 130, 132, 134, 146 % of control"
same,T/C,"T/C endpoint: mean survival time, dose: 800.0 mg/kg/injection, schedule: Q01DX009 (ip), vehicle: saline","100 [5 of 6 alive], 128, 135, 137 [5 of 6 alive], 140, 141, 147, 150 % of control"
same,T/C,"T/C endpoint: mean survival time, dose: 900.0 mg/kg/injection, schedule: Q01DX001 (ip), vehicle: alkali diluted with saline",129 % of control
same,T/C,"T/C endpoint: mean survival time, dose: 1000.0 mg/kg/injection, schedule: Q01DX001 (ip), vehicle: carboxymethylcellulose (CMC)",140 % of control
same,T/C,"T/C endpoint: mean survival time, dose: 1200.0 mg/kg/injection, schedule: Q01DX001 (ip), vehicle: saline",130 % of control
same,T/C,"T/C endpoint: mean survival time, dose: 1500.0 mg/kg/injection, schedule: Q01DX001 (ip), vehicle: carboxymethylcellulose (CMC)",147 % of control
same,T/C,"T/C endpoint: mean survival time, dose: 1600.0 mg/kg/injection, schedule: Q01DX001 (ip), vehicle: saline",129 % of control
same,T/C,"T/C endpoint: mean survival time, dose: 1600.0 mg/kg/injection, schedule: Q01DX005 (ip), vehicle: saline","96 [4 of 6 alive], 112 [4 of 6 alive], 114, 118, 121 [5 of 6 alive], 134 [5 of 6 alive], 138, 143 % of control"
same,survivor count,"T/C endpoint: mean survival time, dose: 2250.0 mg/kg/injection, schedule: Q01DX001 (ip), vehicle: carboxymethylcellulose (CMC)",6 of 10
same,T/C,"T/C endpoint: median survival time, dose: 50.0 mg/kg/injection, schedule: Q03HX024 (sc), vehicle: other",133 % of control
same,T/C,"T/C endpoint: median survival time, dose: 400.0 mg/kg/injection, schedule: Q01DX009 (ip), vehicle: other",144 % of control
same,T/C,"T/C endpoint: median survival time, dose: 400.0 mg/kg/injection, schedule: Q01DX009 (sc), vehicle: other",144 % of control
same,T/C,"T/C endpoint: median survival time, dose: 400.0 mg/kg/injection, schedule: Q03HX024 (sc), vehicle: other",138 % of control
same,T/C,"T/C endpoint: median survival time, dose: 800.0 mg/kg/injection, schedule: Q01DX009 (ip), vehicle: other",144 % of control
same,T/C,"T/C endpoint: median survival time, dose: 800.0 mg/kg/injection, schedule: Q01DX009 (sc), vehicle: other",144 % of control
same,T/C,"T/C endpoint: median survival time, dose: 1600.0 mg/kg/injection, schedule: Q01DX009 (ip), vehicle: other",144 % of control
same,T/C,"T/C endpoint: median survival time, dose: 1600.0 mg/kg/injection, schedule: Q01DX009 (sc), vehicle: other",138 % of control
same,T/C,"T/C endpoint: median survival time, dose: 1600.0 mg/kg/injection, schedule: Q04DX003 (ip), vehicle: other",127 % of control
same,T/C,"T/C endpoint: median survival time, dose: 1600.0 mg/kg/injection, schedule: Q04DX003 (sc), vehicle: other",133 % of control
same,survivor count,"T/C endpoint: median survival time, dose: 3200.0 mg/kg/injection, schedule: Q01DX001 (ip), vehicle: other",3 of 8
same,T/C,"T/C endpoint: median survival time, dose: 3200.0 mg/kg/injection, schedule: Q01DX001 (sc), vehicle: other",133 % of control
same,survivor count,"T/C endpoint: median survival time, dose: 3200.0 mg/kg/injection, schedule: Q01DX009 (ip), vehicle: other",1 of 8
same,survivor count,"T/C endpoint: median survival time, dose: 3200.0 mg/kg/injection, schedule: Q04DX003 (ip), vehicle: other",3 of 8
